Values from PubChem BioAssay AID1224828 (NIAID, 2016)
Here is one part, drawn at random, of about 17,000 reagents. 762 of them (4.5%) count as active. 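Active calls include both raised and lowered p65 entry, mostly lowered; wells with fewer than 50 cells lack a z-score.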 Raw values vary from plate to plate and are shown uncorrected.

Screen: 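Find genes required for NF-kappaB p65 moving into the nucleus after LPS in mouse macrophages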 (primary screen)
Cell system: mouse RAW264.7 G9 macrophage reporter cells (GFP-p65, Tnf promoter-mCherry)
Reagent: siRNA pool against mouse genes, 100 nM
Timing: 2 days siRNA transfection, then 40 min LPS before fixation
Challenge: LPS (Salmonella minnesota R595) at 10 ng/ml
Read-out: 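Imaged p65 nuclear translocation ratio, normalised to the plate median, converted to robust z-scores and averaged across two replicates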
Scale: p65 translocation robust z-score: higher = more nuclear NF-kappaB p65 after LPS than the plate median; nuclear/cytoplasmic p65 ratio: higher = more nuclear NF-kappaB p65
Hit rule: 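Called active when z exceeds 3.3 or falls under -1.56 (median of Tlr4 controls), giving activity score of at least 50; no calls for control wells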
Calls: active = hit (p65 shift raised or lowered); inactive = no clear change

| p65 translocation robust z-score | nuclear/cytoplasmic p65 ratio, rep 1 | nuclear/cytoplasmic p65 ratio, rep 2 | low cell count flag | Call | target |
| --- | --- | --- | --- | --- | --- |
| -1.45 | 1.49 | 1.41 | enough cells to score | inactive | Or10al6 |
| – | 1.03 | 0.908 | fewer than 50 cells per well; well left out of scoring | inactive | 4931429L15Rik |
| 0.72 | 1.56 | 1.68 | enough cells to score | inactive | Slc11a2 |
| -0.76 | 1.67 | 1.08 | enough cells to score | inactive | Nanos1 |
| 0.75 | 1.44 | 1.62 | enough cells to score | inactive | Cep97 |
| 1.38 | 1.6 | 1.33 | enough cells to score | inactive | Zfp93 |
| 0.37 | 1.6 | 1.34 | enough cells to score | inactive | Farp2 |
| -0.28 | 1.63 | 1.52 | enough cells to score | inactive | Alkbh2 |
| – | 1.12 | 1.13 | fewer than 50 cells per well; well left out of scoring | inactive | 3110070M22Rik |
| 0.56 | 1.55 | 1.5 | enough cells to score | inactive | Mprip |
| -0.79 | 1.5 | 1.49 | enough cells to score | inactive | Zfp867 |
| -0.54 | 1.62 | 1.31 | enough cells to score | inactive | Ppp2ca |
| -2.21 | 1.14 | 1.13 | enough cells to score | active | Zfp428 |
| 0.09 | 1.65 | 1.76 | enough cells to score | inactive | Cacng8 |
| -0.39 | 1.27 | 1.43 | enough cells to score | inactive | Gars1 |
| 2.31 | 1.75 | 1.63 | enough cells to score | inactive | Myo10 |
| -0.38 | 1.37 | 1.5 | enough cells to score | inactive | Acad12 |
| -1.09 | 1.57 | 1.46 | enough cells to score | inactive | Nhlh2 |
| -0.1 | 1.39 | 1.25 | enough cells to score | inactive | Slc18a3 |
| 0.8 | 1.41 | 1.37 | enough cells to score | inactive | Plekhf2 |
| – | 1.46 | 1.54 | fewer than 50 cells per well; well left out of scoring | inactive | Zfp691 |
| 0.16 | 1.62 | 1.41 | enough cells to score | inactive | Lcp1 |
| -1.28 | 1.39 | 1.34 | enough cells to score | inactive | Etd |
| -0.91 | 1.4 | 1.39 | enough cells to score | inactive | Gfm1 |

Targets above whose target name begins with C or c (2):
| p65 translocation robust z-score | nuclear/cytoplasmic p65 ratio, rep 1 | nuclear/cytoplasmic p65 ratio, rep 2 | low cell count flag | Call | target |
| --- | --- | --- | --- | --- | --- |
| 0.75 | 1.44 | 1.62 | enough cells to score | inactive | Cep97 |
| 0.09 | 1.65 | 1.76 | enough cells to score | inactive | Cacng8 |
